# Results from one PubChem assay

Data taken from PubChem BioAssay AID1224904, deposited by Broad Institute (2016).

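293T-iDUX4 dual-reporter cells; luminescence of the tet-on Italica luciferase control is read after 24 h.
The test concentration is not given here.
Percent change in the Italica control signal; more negative values mean stronger inhibition, which points to nonspecific, tet-on or cytotoxic effects.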

Values are in %.
Common to all entries: measured here: Italica tet-on control reporter.
Part of the compounds only, not a random draw; the main read-out is not listed here.

SMILES	activity change (%)
CC(C)CC#Cc1ccc([C@H]2[C@@H](CO)N3C(=O)CN(C(=O)c4cccc(F)c4)C[C@@H]23)cc1	0.4319
COc1ccc2c3c([nH]c2c1)[C@@H](CO)N(Cc1cccc(F)c1)CC31CN(CC2CC2)C1	-24.49
COc1ccc2c3c([nH]c2c1)[C@@H](CO)N(Cc1cc(F)ccc1F)CC31CCN(C(C)=O)CC1	3.255
CN1c2ccc(-c3ccc(C#N)cc3)cc2[C@H]2[C@H](CCN2S(=O)(=O)c2ccc(F)cc2)[C@@H]1CO	-10.25
O=C(Cc1ccccn1)N1CC[C@@H]2[C@H]1c1cc(-c3cccc(F)c3)ccc1N[C@@H]2CO	2.717
CCS(=O)(=O)N1CC(=O)N2[C@H](C1)[C@@H](c1ccc(C#Cc3ccc(F)cc3)cc1)[C@@H]2CO	-38.88
O=C(Cc1ccccc1)N1CC2(C1)[C@@H](c1ccccc1)[C@H](CO)N2S(=O)(=O)Cc1ccccc1	-18.54
C[C@H]1CN([C@@H](C)CO)C(=O)c2c(c3ccccc3n2C)-c2ccccc2CO[C@H]1CN(C)C(=O)[C@H](Cc1ccccc1)N(C)C	-25.32
C[C@H]1CN([C@@H](C)CO)C(=O)Cc2cc(N(C)C)ccc2O[C@@H]1CN(C)Cc1ccc(-c2ccccc2)cc1	-18.36
COc1ccc(-c2ccc3c(c2)[C@@H]2[C@@H](CCN2S(=O)(=O)c2ccccc2C)[C@@H](CO)N3)cc1	-76.17
COc1cccc(-c2ccc3c(c2)[C@H]2[C@H](CCN2C(=O)c2ccc4c(c2)OCO4)[C@@H](CO)N3C)c1	-73.35
COc1ccc2c3c([nH]c2c1)[C@H](CO)N(Cc1cccc(F)c1)CC31CN(C(C)=O)C1	-37.43
CO[C@@H]1CN(C)C(=O)c2cc(NS(=O)(=O)c3cccc(F)c3)ccc2OC[C@H](C)N(Cc2cc(F)ccc2F)C[C@@H]1C	-9.47
COc1ccc2c3c(n(C)c2c1)[C@H](CO)N(Cc1ccccc1)CC31CCN(CC2CC2)CC1	-22.17
COc1ccccc1NC(=O)N1CCCCN2[C@@H](CO)[C@@H](c3ccc(-c4cccc(F)c4)cc3)[C@@H]2C1	-75.15
O=C(c1ccc2c(c1)OCO2)N1CCCCN2[C@H](CO)[C@H](c3ccc(-c4ccccc4)cc3)[C@@H]2C1	-5.357
C[C@H]1CN([C@@H](C)CO)C(=O)c2ccccc2-c2ccccc2CO[C@H]1CN(C)Cc1ccccc1C(F)(F)F	-0.4977
CO[C@@H]1CN(C)C(=O)c2cc(NC(=O)Nc3ccc(Cl)c(Cl)c3)ccc2OC[C@H](C)NC[C@H]1C	1.494
COc1ccc2c3c([nH]c2c1)[C@H](CO)N(C(=O)Nc1ccc(F)cc1)CC31CN(Cc2cc(F)ccc2F)C1	-23.1
O=C(C1CC1)N1CC[C@@H]2[C@H](CO)Nc3ccc(Br)cc3[C@@H]21	-20.97
C[C@H]1CN([C@@H](C)CO)C(=O)CCCn2nncc2CO[C@H]1CN(C)Cc1ccccc1C(F)(F)F	-19.14
O=C(NC1CCCC1)N1CC2(C1)[C@@H](c1ccccc1)[C@@H](CO)N2CC1CCCC1	-5.986
Cc1ccccc1S(=O)(=O)N1CC[C@@H]2[C@@H](CO)Nc3ccc(-c4ccc(F)cc4)cc3[C@@H]21	-2.952
COc1ccc2c3c(n(C)c2c1)[C@H](CO)N(C(=O)Nc1ccc(F)cc1)CC31CN(Cc2ccccc2F)C1	-33.51
O=C(Nc1cc(F)ccc1F)N[C@@H]1CC[C@@H](CCn2cc(C3CCCCC3)nn2)O[C@@H]1CO	3.045
O=C(C[C@@H]1CC[C@@H]2[C@H](COC[C@H](O)CN2Cc2ccccc2F)O1)N[C@H]1CCN(Cc2ccccc2)C1	-9.472
CO[C@H]1CN(C)C(=O)c2cc(NC(=O)c3ccc(Oc4ccccc4)cc3)ccc2OC[C@H](C)NC[C@@H]1C	-81.65
CCN1[C@H](C(=O)Nc2nccs2)[C@@H](CO)[C@@H]2Cn3c(ccc(/C=C/c4ccccc4)c3=O)[C@@H]21	0.8754
COc1ccc2c3c(n(C)c2c1)[C@@H](CO)N(CC1CC1)CC31CN(C(=O)Nc2ccc(F)cc2F)C1	-5.752
Fc1ccc(-c2ccc(C3[C@@H]4CN(Cc5cccc(F)c5)C[C@H]3N4)cc2)cc1 (stereo partly drawn)	-85.15
O=C(C[C@H]1CC[C@@H]2[C@H](COC[C@@H](O)CN2Cc2cccc(Cl)c2)O1)NCC1CCCCC1	-12.96
COc1cccc(S(=O)(=O)N2CC[C@@H]3[C@@H](CO)Nc4ccc(-c5ccc(C#N)cc5)cc4[C@@H]32)c1	-46.27

For reference, 4 entries once more:

With O=C(C[C@H]1CC[C@@H]2[C@H](COC[C@@H](O)CN2Cc2cccc(Cl)c2)O1)NCC1CCCCC1 the assay gave activity change -12.96%.
With O=C(C[C@@H]1CC[C@@H]2[C@H](COC[C@H](O)CN2Cc2ccccc2F)O1)N[C@H]1CCN(Cc2ccccc2)C1 the assay gave activity change -9.472%.
With CO[C@@H]1CN(C)C(=O)c2cc(NC(=O)Nc3ccc(Cl)c(Cl)c3)ccc2OC[C@H](C)NC[C@H]1C the assay gave activity change 1.494%.
With COc1ccc2c3c([nH]c2c1)[C@@H](CO)N(Cc1cc(F)ccc1F)CC31CCN(C(C)=O)CC1 the assay gave activity change 3.255%.